Taken from: PubChem BioAssay AID1159584 (Peter MacCallum Cancer Centre, 2016)
Test: 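Genes that CDH1-null MCF10A cells selectively depend on to survive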 (primary screen). Cells: human MCF10A breast epithelial cells, parental and CDH1-null. Reagent: siRNA against human genes. Detection: 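ATP luminescence (CellTiter-Glo) viability per line relative to mean mock wells over all plates, and the ratio of CDH1-null to parental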. Scale: CDH1-null / parental viability ratio: higher = CDH1-null cells survive relatively better than parental; CDH1-null viability vs mock: higher = more viable CDH1-null cells; parental viability vs mock: higher = more viable parental cells.
The whole screen tested about 18,000 reagents; below is a random part of them. Not given: the amount of reagent, the time to read-out.

gene symbol | CDH1-null / parental viability ratio | CDH1-null viability vs mock (fraction of mock) | parental viability vs mock (fraction of mock)
CNOT12 (CCR4-NOT transcription complex subunit 12) | 0.92 | 0.24 | 0.26
TROAP (trophinin associated protein) | 1 | 0.9 | 0.9
DRC10 (dynein regulatory complex subunit 10) | 0.53 | 0.34 | 0.64
NEMP1 (nuclear envelope integral membrane protein 1) | 0.83 | 0.76 | 0.92
REXO1 (RNA exonuclease 1 homolog) | 0.99 | 0.97 | 0.98
PNPLA5 (patatin like domain 5, triacylglycerol lipase) | 1.03 | 0.6 | 0.58
TMEM63A (transmembrane protein 63A) | 1.12 | 0.65 | 0.58
DENND10 (DENN domain containing 10) | 0.7 | 0.74 | 1.06
AKR1E2 (aldo-keto reductase family 1 member E2) | 1.05 | 1.02 | 0.97
DPF3 (double PHD fingers 3) | 0.84 | 0.57 | 0.68
SLC8A1 | 1.2 | 1.03 | 0.86
LINC02875 (long independently transcribed non-coding RNA 2875) | 0.94 | 0.83 | 0.88
ATAD5 (ATPase family AAA domain containing 5) | 0.96 | 0.82 | 0.85
KRTAP5-9 (keratin associated protein 5-9) | 0.9 | 0.88 | 0.98
TP53BP2 (tumor protein p53 binding protein 2) | 0.94 | 0.78 | 0.83
PDGFRA (platelet derived growth factor receptor alpha) | 0.93 | 0.8 | 0.86
EPSTI1 (epithelial stromal interaction 1) | 1 | 0.54 | 0.54
FST (follistatin) | 1.07 | 1.02 | 0.95
SNRPB2 (small nuclear ribonucleoprotein polypeptide B2) | 0.94 | 0.48 | 0.51
CHRNB3 (cholinergic receptor nicotinic beta 3 subunit) | 1.16 | 1.14 | 0.98
IL21R (interleukin 21 receptor) | 0.99 | 0.75 | 0.76
PMP2 (peripheral myelin protein 2) | 1.2 | 1.16 | 0.97
STC2 (stanniocalcin 2) | 1.4 | 0.77 | 0.55
CST3 (cystatin C) | 1.03 | 0.72 | 0.7

4 entries from above, set out differently.
{"gene symbol":"CNOT12 (CCR4-NOT transcription complex subunit 12)","CDH1-null / parental viability ratio":0.92,"CDH1-null viability vs mock (fraction of mock)":0.24,"parental viability vs mock (fraction of mock)":0.26}
{"gene symbol":"TROAP (trophinin associated protein)","CDH1-null / parental viability ratio":1,"CDH1-null viability vs mock (fraction of mock)":0.9,"parental viability vs mock (fraction of mock)":0.9}
{"gene symbol":"DRC10 (dynein regulatory complex subunit 10)","CDH1-null / parental viability ratio":0.53,"CDH1-null viability vs mock (fraction of mock)":0.34,"parental viability vs mock (fraction of mock)":0.64}
{"gene symbol":"NEMP1 (nuclear envelope integral membrane protein 1)","CDH1-null / parental viability ratio":0.83,"CDH1-null viability vs mock (fraction of mock)":0.76,"parental viability vs mock (fraction of mock)":0.92}

The listing continues:
gene symbol | CDH1-null / parental viability ratio | CDH1-null viability vs mock (fraction of mock) | parental viability vs mock (fraction of mock)
SNX25 (sorting nexin 25) | 0.97 | 0.84 | 0.87
NOP14 (NOP14 nucleolar protein) | 1.04 | 0.58 | 0.56
PLCB2 (phospholipase C beta 2) | 1.21 | 0.94 | 0.78
WASHC5 (WASH complex subunit 5) | 1.1 | 0.9 | 0.82
BRINP3 (BMP/retinoic acid inducible neural specific 3) | 0.87 | 0.86 | 0.99
PGAP4 (post-GPI attachment to proteins GalNAc transferase 4) | 0.98 | 0.5 | 0.51
UGT2B28 (UDP glucuronosyltransferase family 2 member B28) | 0.92 | 0.77 | 0.84
GLB1L2 (galactosidase beta 1 like 2) | 1.3 | 0.74 | 0.57
TAC3 (tachykinin precursor 3) | 1 | 0.9 | 0.9
EPHA2 (EPH receptor A2) | 1.01 | 0.94 | 0.93
RNF40 (ring finger protein 40) | 0.83 | 0.58 | 0.7
NDFIP2 (Nedd4 family interacting protein 2) | 0.87 | 0.7 | 0.8
SLC13A5 | 1.09 | 0.94 | 0.86
GPR139 (G protein-coupled receptor 139) | 0.85 | 0.8 | 0.94
OR4C3 (olfactory receptor family 4 subfamily C member 3) | 0.96 | 0.77 | 0.8
CCNA1 (cyclin A1) | 1.01 | 0.73 | 0.72
INPPL1 (inositol polyphosphate phosphatase like 1) | 1.16 | 0.88 | 0.76
ZNF41 (zinc finger protein 41) | 1.53 | 0.66 | 0.43
STEAP2 (STEAP2 metalloreductase) | 1.16 | 1.06 | 0.91
SERPINE1 (serpin family E member 1) | 1.07 | 0.91 | 0.85
RAVER1 (ribonucleoprotein, PTB binding 1) | 0.95 | 0.7 | 0.74
DCTN1 (dynactin subunit 1) | 0.98 | 0.84 | 0.86
